Test results published in PMC3115984.
Results are given in words; binding and its absence hold for the method and conditions named. In cells and extracts the contact can be indirect. Some results given as binding are weak or reduced against the parent protein; the word gives no strength.

The chains behind the UniProt entries cited, without tags or fusion partners. Where a name states a change or a piece, a line headed by the entry shows the natural chain unless it says otherwise. A line that says so, or that is headed by a name, gives the form on record, which may keep a tag or linker. Residues count along the entry.
UniProt Q12846: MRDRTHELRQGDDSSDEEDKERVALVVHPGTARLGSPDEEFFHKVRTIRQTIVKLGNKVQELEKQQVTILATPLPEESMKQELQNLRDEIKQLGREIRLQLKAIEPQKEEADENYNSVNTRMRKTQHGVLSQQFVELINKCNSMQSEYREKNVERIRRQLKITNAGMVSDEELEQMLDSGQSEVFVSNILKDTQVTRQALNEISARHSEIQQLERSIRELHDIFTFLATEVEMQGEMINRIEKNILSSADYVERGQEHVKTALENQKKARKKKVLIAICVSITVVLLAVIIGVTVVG
syntaxin 4-Δ29 (myc-tagged human syntaxin 4 lacking the first 29 N-terminal amino acids): residues 30-297 of Q12846
UniProt A0A8I3N4I4: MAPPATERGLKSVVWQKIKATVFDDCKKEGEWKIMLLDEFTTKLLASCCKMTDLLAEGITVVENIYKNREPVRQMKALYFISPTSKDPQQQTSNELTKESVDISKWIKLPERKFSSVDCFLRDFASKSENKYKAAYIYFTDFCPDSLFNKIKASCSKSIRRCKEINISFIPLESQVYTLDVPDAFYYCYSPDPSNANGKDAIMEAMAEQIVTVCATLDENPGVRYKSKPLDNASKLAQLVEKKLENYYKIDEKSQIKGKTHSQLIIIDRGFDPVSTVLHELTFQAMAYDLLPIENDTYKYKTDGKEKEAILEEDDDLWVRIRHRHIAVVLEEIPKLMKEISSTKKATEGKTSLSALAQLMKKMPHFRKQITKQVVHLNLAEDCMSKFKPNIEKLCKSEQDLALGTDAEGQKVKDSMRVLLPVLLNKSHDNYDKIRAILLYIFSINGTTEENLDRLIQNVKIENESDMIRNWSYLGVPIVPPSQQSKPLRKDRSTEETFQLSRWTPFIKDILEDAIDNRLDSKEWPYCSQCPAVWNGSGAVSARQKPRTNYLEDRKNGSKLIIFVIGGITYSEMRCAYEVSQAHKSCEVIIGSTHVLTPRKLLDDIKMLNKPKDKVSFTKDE

Experiments:
[1] = molecular target: syntaxin 4-Δ29 (myc-tagged human syntaxin 4 lacking the first 29 N-terminal amino acids) (human) (UniProt Q12846); assay: co-IP; lysates of polarized stable MDCK cell lines induced with DOX; anti-myc antibody cross-linked to protein A-Sepharose, overnight at 4°C; 50 mM Hepes-KOH pH 7.4, 50 mM potassium acetate, 1% Triton X-100; immunoblot for endogenous SNAP-23 and Munc18c
[2] = molecular target: syntaxin 4-WT (myc-tagged human syntaxin 4) (human) (UniProt Q12846); assay: as above

With “Munc18c (endogenous, MDCK) (from UniProt A0A8I3N4I4 1-621)” the binding [1] was “no binding” and the binding [2] was “binds”.
